{"source": "patent US9260486B2", "about": "(The University of Vermont and State Agricultural College, priority 2012, dated 2016)", "system": "KCa1.1 channels", "assay": "Inside-out patch clamp, open probability of single KCa1.1 channels in membrane patches from VSM cells reconstituted with recombinant PKG", "type": "cell-based", "conditions": "rat posterior cerebral artery VSM cells, with PKG Iα and ATP", "description": "FIG. 4: SW:329-358 activates single KCa channels in inside-out membrane patches excised from cerebral artery myocytes.\nOnce we had supporting evidence that molecules carrying the knob-type ligand conformation were capable of activating PKG we set out to determine if this novel mechanism of kinase activation was functionally relevant. The high conductance calcium-activated potassium channel KCa1.1 is a well-established intracellular target of […] in vascular smooth muscle (VSM) cells. Using inside-out patch clamp configurations from freshly dissociated VSM cells from rat posterior cerebral arteries, we measured the changes of open probability (NPO) of single KCa1.1 channels in response to PKG stimulation in membrane patches excised from freshly-dissociated vascular smooth muscle cells (FIG. 4).", "note": "Part of at least one peptide drawing is inferred or uncertain, most often the ends. Residues, ends and D or L forms follow the SMILES beside them.", "data": [{"compound": "CC(C)C[C@H](NC(=O)[C@H](CC(N)=O)NC(=O)[C@H](C)NC(=O)[C@H](Cc1ccccc1)NC(=O)[C@H](Cc1ccccc1)NC(=O)[C@H](C)NC(=O)[C@H](C)NC(=O)[C@H](CCC(=O)O)NC(=O)[C@H](C)NC(=O)[C@H](CCC(=O)O)NC(=O)[C@H](Cc1ccc(O)cc1)NC(=O)[C@H](CCCCN)NC(=O)[C@H](C)NC(=O)[C@H](CCCCN)NC(=O)[C@H](C)NC(=O)[C@H](CCC(=O)O)NC(=O)[C@H](C)NC(=O)[C@H](CC(=O)O)NC(=O)[C@H](CCC(=O)O)NC(=O)[C@H](Cc1ccc(O)cc1)NC(=O)[C@H](C)NC(=O)[C@H](CCCCN)NC(=O)[C@H](CC(N)=O)NC(=O)[C@H](CO)NC(=O)[C@@H](NC(=O)[C@@H](N)CC(=O)O)C(C)C)C(=O)N[C@@H](CCCCN)C(=O)N[C@@H](CC(C)C)C(=O)N[C@@H](CO)C(=O)N[C@@H](CC(=O)O)C(=O)O", "note": "[SW:329-358] (H-DVSNKAYEDAEAKAKYEAEAAFFANLKLSD-OH; N-terminus and C-terminus assumed)", "values": [{"measurement": "KCa1.1 channel open probability (NPO)", "value": "significantly increased"}, {"measurement": "KCa1.1 channel open probability (NPO)", "setting": "listed as SW329-358 peptide", "value": "increased NPO"}]}]}
